PubChem BioAssay AID2551 (National Center for Advancing Translational Sciences (NCATS), 2010)
In all, about 310,000 compounds went through this assay and about 17,000 (5.5%) were called active. Inconclusive results, whose numbers are uncertain, are shown with a selection of clear calls. The call rests on the fitted dose curve; in most records, active means well fitted inhibition curve with a large enough effect; inconclusive means small, poorly fitted or top-dose-only effect, or effect the other way; inactive means no such curve, though single readings can be large or run the other way. Potencies of inconclusive entries are doubtful fits and often do not repeat.

By UniProt entry, the sequences of proteins in these tests, tags left out. Where a name states a change or a piece, a line headed by the entry shows the natural chain unless it says otherwise.
UniProt P51450: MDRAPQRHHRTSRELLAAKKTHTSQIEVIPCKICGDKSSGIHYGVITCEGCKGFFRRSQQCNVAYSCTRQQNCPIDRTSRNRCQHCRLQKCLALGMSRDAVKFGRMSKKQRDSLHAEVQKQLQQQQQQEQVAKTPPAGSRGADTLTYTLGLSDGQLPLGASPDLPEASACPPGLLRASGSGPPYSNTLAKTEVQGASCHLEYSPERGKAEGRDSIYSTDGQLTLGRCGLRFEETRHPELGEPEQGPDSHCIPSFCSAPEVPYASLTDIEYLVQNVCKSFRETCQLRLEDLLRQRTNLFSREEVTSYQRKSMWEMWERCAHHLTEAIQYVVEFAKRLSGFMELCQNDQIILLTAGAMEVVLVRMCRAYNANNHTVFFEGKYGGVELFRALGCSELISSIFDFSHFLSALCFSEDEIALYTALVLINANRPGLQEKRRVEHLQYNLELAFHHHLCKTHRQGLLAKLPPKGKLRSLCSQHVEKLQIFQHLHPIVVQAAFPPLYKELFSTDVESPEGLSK

Biological target: Nuclear receptor ROR-gamma (Mus musculus) (UniProt P51450)
Experiment: qHTS for inhibitors of ROR gamma transcriptional activity; further: nearly all actives have a fitted effect of over 60% in size
Settings: Drosophila S2 Gal4-RORgamma UAS-luciferase reporter, 20 h; activity change, negative = inhibition: at 53.6 µM (top of the series)
Procedure, shortened: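 Read-out: Photinus luciferase luminescence; inhibitors lower reporter signal. Insect Schneider cells with Gal4-ROR gamma fusion under metallothionein promoter, UAS reporter; 700 uM final copper sulfate induction, 20 hr, ambient temperature.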
On the % scale 0 is the no-effect control and ±100 the full control effect; potency means the concentration at half of the fitted maximal effect.

Row | SMILES | Potency | activity change, negative = inhibition
1 | COc1cc(OC)c(NC(=O)Cc2cccs2)cc1Cl | inconclusive: 12.6 µM [activator, partial curve] | 
2 | O=C(N=Nc1c(O)n(Cc2ccccc2)c2ccccc12)c1cc2ccccc2cc1O | inconclusive: 1.58 µM [activator, single point] | 
3 | O=C(OC(C(=O)NCC1CCCO1)c1ccccc1F)c1ccco1 (centres undefined) | inconclusive: 35.5 µM [inhibitor, single point] | 
4 | Cc1ccccc1CSCC(=O)NNC(=S)NCC1CCCO1 (centres undefined) | inconclusive: 10 µM [inhibitor, partial curve, poor fit] | 
5 | Cc1cc(C)n(CCNC(=O)c2cc(COc3ccc(F)cc3Cl)on2)n1 | inconclusive: 12.6 µM [activator, partial curve] | 
6 | COc1ccc(Cl)cc1NC(=O)CSc1nnc(Cc2cccn2C)n1-c1ccc(F)cc1 | inconclusive: 35.5 µM [activator, single point] | 
7 | Cc1ccc2nc(NC(=O)C3=NN(c4ccccc4)C(=O)CC3)sc2c1 | inconclusive: 2.82 µM [activator, single point] | 
8 | COc1ccc(C2CC(c3ccccc3)Nc3nc(NC(=O)c4ccco4)nn32)cc1 (centres undefined) | active: 6.31 µM | 
9 | Cn1cccc1-c1cc(C(=O)N/N=C/C=C/c2ccccc2)[nH]n1 | active: 5.01 µM | 
10 | COC(=O)NCc1cc2cc(Cl)ccc2[nH]1 | inconclusive: 35.5 µM [inhibitor, single point] | 
11 | Nc1nc(SCC(=O)Nc2ccc(Oc3ccccc3)cc2)n[nH]1 | inconclusive: 31.6 µM [inhibitor, single point] | 
12 | CCCOc1ccc(C2CC(=O)Nc3cc(OC)c(OC)cc32)cc1 (centres undefined) | inconclusive: 8.91 µM [activator, partial curve, poor fit] | 
13 | CC1CCc2nc(NC(=O)CN3CCN(c4ccccc4)CC3)sc2C1 (centres undefined) | inconclusive: 0.501 µM [inhibitor, full curve] | 
14 | Cc1ccc(-n2c(N)cc(=O)nc2SCC(=O)NC2CCCCC2)cc1C |  | inactive: 19.2%
15 | CCOC(=O)/C(C#N)=C1/C=CN(c2ccccc2)C=N1 | inconclusive: 1.26 µM [activator, full curve, poor fit] | 
16 | Cc1ccc(N(C(C)C(=O)Nc2cc(Cl)ccc2Oc2ccccc2)S(C)(=O)=O)cc1 (centres undefined) | inconclusive: 15.8 µM [activator, single point] | 
17 | O=C(NCc1ccco1)C1CCCN(S(=O)(=O)c2ccc(Br)cc2)C1 (centres undefined) |  | inactive: 6.37%
18 | CCC(=O)NC(=S)Nc1cccc(C(C)=O)c1 | active: 11.2 µM | 
19 | Cc1cc(C(=O)Nc2nc3c(s2)CCCC3)no1 | inconclusive: 0.0891 µM [inhibitor, full curve, poor fit] | 

Copied from above: compounds 14 to 17
Row | SMILES | Potency | activity change, negative = inhibition
14 | Cc1ccc(-n2c(N)cc(=O)nc2SCC(=O)NC2CCCCC2)cc1C |  | inactive: 19.2%
15 | CCOC(=O)/C(C#N)=C1/C=CN(c2ccccc2)C=N1 | inconclusive: 1.26 µM [activator, full curve, poor fit] | 
16 | Cc1ccc(N(C(C)C(=O)Nc2cc(Cl)ccc2Oc2ccccc2)S(C)(=O)=O)cc1 (centres undefined) | inconclusive: 15.8 µM [activator, single point] | 
17 | O=C(NCc1ccco1)C1CCCN(S(=O)(=O)c2ccc(Br)cc2)C1 (centres undefined) |  | inactive: 6.37%
